These results are taken from the supplement of paper PMC8007513.

This experiment has as its system Saccharomyces cerevisiae BY4743. Description: growth (OD600) with compound + IPBC relative to untreated control; higher = less growth inhibition. The conditions noted are these: compound concentration: 133 uM; IPBC concentration: 0.5 ug/ml; 20 h. As for the experimental part:
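NMCCC compounds (133 uM) combined with IPBC (0.5 ug/ml) against Saccharomyces cerevisiae BY4743 in YPD, 96-well plates. Growth was read as OD600 at 20 h and expressed as % of the untreated control. Single pass.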

Some of the results follow. Single values are uncertain, as repeats are few or missing.

Consider `CCOc1ccccc1-n1nnnc1SCC(=O)NC(=O)Cc1ccccc1` + CCCCNC(=O)OCC#CI [3-iodo-2-propynyl butylcarbamate (IPBC)], for which the growth was found to be 90.6%.
Consider `CSc1ncc(Cl)c(C(=O)N2CCN(Cc3csc(C)n3)CC2)n1` + CCCCNC(=O)OCC#CI [3-iodo-2-propynyl butylcarbamate (IPBC)], for which the growth is 110%.
For the compound `CN(c1ccccc1)S(=O)(=O)c1ccccc1C(=O)OCC(=O)c1ccc(Cl)s1` + CCCCNC(=O)OCC#CI [3-iodo-2-propynyl butylcarbamate (IPBC)], the growth came to 95.1%.
On to `CCCN1\C=C(/C(=O)C2=CC(=CC=C12)CC)[S](=O)(=O)C3=CC=C(OC)C=C3` + CCCCNC(=O)OCC#CI [3-iodo-2-propynyl butylcarbamate (IPBC)], for which the growth is 106%.
The same measure for `CCSc1ncc(Cl)c(C(=O)Nc2nc(C)c(C(=O)OCC(C)C)s2)n1` + CCCCNC(=O)OCC#CI [3-iodo-2-propynyl butylcarbamate (IPBC)]: 106%; for `Cc1nc(C)c(-c2nnc(SC(C)C(=O)NC3CCCCCC3)o2)s1` (configuration not stated) + CCCCNC(=O)OCC#CI [3-iodo-2-propynyl butylcarbamate (IPBC)]: 104%.
Take `COc1ccc(Br)cc1CNC(=O)CN1C(=O)CSc2nc(C)cc(C)c21` + CCCCNC(=O)OCC#CI [3-iodo-2-propynyl butylcarbamate (IPBC)]: the growth was determined as 106%.
Turning to `COC1=CC=C(CCC2CCN(CC2)CN3\C=C(Br)/C=C\C3=O)C=C1` + CCCCNC(=O)OCC#CI [3-iodo-2-propynyl butylcarbamate (IPBC)], the growth stood at 84.3%.
Take `CCNc1sc(S(C)(=O)=O)nc1S(=O)(=O)c1ccc(Cl)cc1` + CCCCNC(=O)OCC#CI [3-iodo-2-propynyl butylcarbamate (IPBC)]: the growth stood at 112%.
The same measure for `CC1=CC\2=C(C=C1C)N(CC(=O)NCC3=CC=C(Cl)C=C3)C(=O)\C(=N2)C(F)(F)F` + CCCCNC(=O)OCC#CI [3-iodo-2-propynyl butylcarbamate (IPBC)]: 87.7%.
Take `COC1=CC=C(OC)C(=C1)NC(=O)CN2\C=C/N(CC3=CC=C(C)C=C3)C(=O)C2=O` + CCCCNC(=O)OCC#CI [3-iodo-2-propynyl butylcarbamate (IPBC)]: the growth came out at 98.6%.
Take `O=C(OCC(=O)N1CCNC1=O)c1cnn(Cc2ccccc2)c1` + CCCCNC(=O)OCC#CI [3-iodo-2-propynyl butylcarbamate (IPBC)]: the growth turned out to be 95.1%.
For the compound `CCN(C(=O)c1cccc2c1SCCC2=O)c1cc(Cl)ccc1OC` + CCCCNC(=O)OCC#CI [3-iodo-2-propynyl butylcarbamate (IPBC)], the growth amounted to 101%.
For the compound `CCCN(C(=O)C(=O)c1c(C)n(C)c2ccccc12)c1ccc(F)cc1` + CCCCNC(=O)OCC#CI [3-iodo-2-propynyl butylcarbamate (IPBC)], the growth was 88.9%.
The same measure for `CN(Cc1cnn(Cc2ccccc2)c1)C(=O)c1cc(Cl)ccc1Cl` + CCCCNC(=O)OCC#CI [3-iodo-2-propynyl butylcarbamate (IPBC)]: 91.3%; for `CC(=O)NC(C(=O)N1CCN(Cc2nnc3n2CCCCC3)CC1)C(C)C` (configuration not stated) + CCCCNC(=O)OCC#CI [3-iodo-2-propynyl butylcarbamate (IPBC)]: 104%; for `CC(C)C(=O)NC1=CC=C(C=C1)C(=O)C(C)OC(=O)CN2\C=N/C3=C(C=CS3)C2=O` (configuration not stated) + CCCCNC(=O)OCC#CI [3-iodo-2-propynyl butylcarbamate (IPBC)]: 109%.
In the case of `COc1ccc(N(C)C(=O)CN(C)S(=O)(=O)c2ccc3c(c2)c(=O)n(C)c(=O)n3C)c(OC)c1` + CCCCNC(=O)OCC#CI [3-iodo-2-propynyl butylcarbamate (IPBC)], the growth amounted to 72.5%.
The same measure for `CC(Sc1ccc2c(c1)OCCCO2)C(=O)Nc1sccc1C(N)=O` (configuration not stated) + CCCCNC(=O)OCC#CI [3-iodo-2-propynyl butylcarbamate (IPBC)]: 113%; for `O=C(Nc1ccc(Cl)c(-c2nc3cnccc3o2)c1)C(F)(F)F` + CCCCNC(=O)OCC#CI [3-iodo-2-propynyl butylcarbamate (IPBC)]: 101%.
On to `Brc1nnnn1-c1ccc2c(c1)OCCO2` + CCCCNC(=O)OCC#CI [3-iodo-2-propynyl butylcarbamate (IPBC)], for which the growth was 87.6%.
The same measure for `CCc1cccc(C)c1NC(=O)Cn1c(C(=O)OC)cc2sccc21` + CCCCNC(=O)OCC#CI [3-iodo-2-propynyl butylcarbamate (IPBC)]: 82.5%.
Take `Cc1c(Cl)cccc1NC(=O)CNC(=O)CCCc1nc(O)c2ccccc2n1` + CCCCNC(=O)OCC#CI [3-iodo-2-propynyl butylcarbamate (IPBC)]: the growth stood at 97.1%.
The same measure for `COc1ccc(C(=O)CSc2ccc3ccccc3n2)c(OC)c1` + CCCCNC(=O)OCC#CI [3-iodo-2-propynyl butylcarbamate (IPBC)]: 85.6%; for `CC(Oc1ccc(NC(=O)c2ccco2)cc1)C(=O)NCc1ccc(Cl)cc1` (configuration not stated) + CCCCNC(=O)OCC#CI [3-iodo-2-propynyl butylcarbamate (IPBC)]: 114%; for `CCOc1ccc(CNc2nc3nc(C)c(C)c(O)n3n2)cc1` + CCCCNC(=O)OCC#CI [3-iodo-2-propynyl butylcarbamate (IPBC)]: 106%.
On to `Cc1cc(N2CCN(CC(=O)N(C)C)CC2)n2nc(C(F)(F)F)nc2n1` + CCCCNC(=O)OCC#CI [3-iodo-2-propynyl butylcarbamate (IPBC)], for which the growth amounted to 112%.
